Experimental data: PubChem BioAssay AID504791 (Drosophila RNAi Screening Center, 2011)

Aim: 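Genes of the fly required for silencing by miRNA, siRNA or endo-siRNA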 (primary screen)
System: Drosophila S2-derived reporter cells
Reagents: long dsRNA against Drosophila genes, about 150-250 ng dsRNA per well (siRNA assay); about 80-120 ng (miRNA assay)
Timing: about 5 days (siRNA assay); about 4 days (miRNA assay)
Treatment: copper sulfate induction of reporters: 25 µM (siRNA assay); 200 mM stated (miRNA assay), 1-2 days before reading
Read-out: 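Per-well ratio of Renilla over firefly light, expressed relative to that plate's average ratio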
Active means: 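a well was a first-pass pick when its plate-scaled ratio rose above 1.5 (siRNA assay) or 1.6 (miRNA assay), or dropped below 0.6; a gene counted only if two separate dsRNAs agreed on retest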
In all, the deposit lists about 23,000 reagents; below is a random part of those that have a named target and a result. In the full data, 199 (0.86%) are marked active. 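Plate-scaled ratios behind the calls are not deposited; printed light signals are raw; many rows marked increased or decreased are still called inactive.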 A number with no mark means an inactive call. Not given: the direction of the score.

With knock-down of lov [DRSC04279], the record shows stable assay Renilla, run 1 (luminescence) = 6867; stable assay firefly, run 1 (luminescence) = 4.88e5.
With knock-down of lov [DRSC04665], the record shows stable assay Renilla, run 1 (luminescence) = 3356; stable assay firefly, run 1 (luminescence) = 4.55e5.
Against Zip99C [DRSC16320], the values are stable assay Renilla, run 1 (luminescence) = 7499; stable assay firefly, run 1 (luminescence) = 3.74e5.
After knock-down of Nle [DRSC00763] the results were stable assay Renilla, run 1 (luminescence) = 7578; stable assay firefly, run 1 (luminescence) = 5.75e5.
For wun2 [DRSC07566] the deposit lists stable assay Renilla, run 1 (luminescence) = 6704; stable assay firefly, run 1 (luminescence) = 3.89e5.
Apoltp [DRSC02508] gave stable assay Renilla, run 1 (luminescence) = 6536; stable assay firefly, run 1 (luminescence) = 7.80e5.
For PH4alphaNE1 [DRSC16546], the entry reads stable assay Renilla, run 1 (luminescence) = 7383; stable assay firefly, run 1 (luminescence) = 3.58e5.
CG4593 [DRSC18374] scored stable assay Renilla, run 1 (luminescence) = 5906; stable assay firefly, run 1 (luminescence) = 2.88e5.
With knock-down of achi [DRSC07276], the record shows stable assay Renilla, run 1 (luminescence) = 4895; stable assay firefly, run 1 (luminescence) = 2.33e5.
Silencing of Myo28B1 [DRSC03375] came out at: stable assay Renilla, run 1 (luminescence) = 7046; stable assay firefly, run 1 (luminescence) = 5.09e5.
With knock-down of sfl [DRSC08828], the record shows stable assay Renilla, run 1 (luminescence) = 5679; stable assay firefly, run 1 (luminescence) = 4.53e5.
sfl [DRSC08830] gave stable assay Renilla, run 1 (luminescence) = 4815; stable assay firefly, run 1 (luminescence) = 4.07e5.
After knock-down of ppl [DRSC11899], the record shows stable assay Renilla, run 1 (luminescence) = 8186; stable assay firefly, run 1 (luminescence) = 4.39e5.
With knock-down of gus [DRSC04885] the results were stable assay Renilla, run 1 (luminescence) = 29739; stable assay firefly, run 1 (luminescence) = 1.20e6.
After knock-down of gus [DRSC04886], the screen gave stable assay Renilla, run 1 (luminescence) = 4947; stable assay firefly, run 1 (luminescence) = 3.30e5.
With knock-down of gus [DRSC27153], the screen gave miRNA reporter change reporter ratio raised past the hit cutoff.
CG42262 (retired record) [DRSC17628] showed stable assay Renilla, run 1 (luminescence) = 4384; stable assay firefly, run 1 (luminescence) = 3.70e5.
CG42262 (retired record) [DRSC17974] scored stable assay Renilla, run 1 (luminescence) = 5704; stable assay firefly, run 1 (luminescence) = 5.58e5.
Depletion of RpS23 [DRSC07169] resulted in: stable assay Renilla, run 1 (luminescence) = 8083; stable assay firefly, run 1 (luminescence) = 6.13e5.
For RpS23 [DRSC26313] the deposit lists miRNA reporter change reporter ratio lowered past the hit cutoff.
